Reference: PMC9573667, “Efficient Oxidative Dearomatisations of Substituted Phenols Using Hypervalent Iodine (III) Reagents and Antiprotozoal Evaluation of the Resulting Cyclohexadienones against T. b. rhodesiense and P. falciparum Strain NF54” (Molecules, 2022)

Key:
[1] = test system: T. brucei rhodesiense, strain STIB900 trypomastigote forms; assay: In vitro growth inhibition assay of Trypanosoma brucei rhodesiense STIB900 (Alamar blue); format: cell-based; settings: L6 vs T. b. rhodesiense STIB900
Procedure: Trypanocidal activity was determined in vitro against axenically grown bloodstream-forms of T. b. rhodesiense STIB900 as described in Refs. [76, 77] and detailed in the Supplementary Materials. Parasite proliferation was assessed via fluorescence of the redox-sensitive dye resazurin (Alamar blue). The drug melarsoprol was used as the positive control. […]
1.2 In vitro growth inhibition assay of Trypanosoma brucei rhodesiense
Trypanosoma brucei rhodesiense, STIB 900 strain, and the standard drug, melarsoprol, were used for the assay. Minimum Essential Medium (50 μL) supplemented with 25 mM HEPES, 1g/L additional glucose, 1% MEM non-essential amino acids (100x), 0.2 mM 2-mercaptoethanol, 1 mM Na-pyruvate and 15% heat-inactivated horse serum was added to each well of a 96-well microtiter plate. Serial drug dilutions of 11 three-fold dilution steps covering a range from 100 to 0.002 μg/mL were prepared. Then […]
mL double-distilled water) was then added to each well and incubation continued for a further 2–4 h.
Then, the plates were read with a Spectramax Gemini XS microplate fluorometer (Molecular Devices Cooperation, Sunnyvale, CA, USA) using an excitation wavelength of 536 nm and an emission wavelength of 588 nm. The IC50 values were calculated from the sigmoidal inhibition curves using the microplate reader software Softmax Pro (Molecular Devices Cooperation, Sunnyvale, CA, USA). […]

[2] = test system: P. falciparum, strain NF54, erythrocytic stages; assay: In vitro growth inhibition assay of Plasmodium falciparum NF54 ([3H]-hypoxanthine incorporation); format: cell-based; settings: L6 vs P. falciparum NF54
Procedure: Antimalarial activity was determined in vitro against the erythrocytic stages of P. falciparum using the drug-sensitive strain NF54. Parasite proliferation was assessed by incorporation of [^3H]-hypoxanthine using a modified version of [75]; for details, please refer to the Supplementary Materials. The positive control was chloroquine.
1. Experimental of biological testing
1.1 In vitro growth inhibition assay of Plasmodium falciparum NF54
Plasmodium falciparum, strain NF54, erythrocytic stages, and the standard drug, chloroquine, were used for the assay. The parasite cultures incubated in RPMI 1640 medium with 5% AlbuMAXTM (without hypoxanthine) were exposed to serial drug dilutions in microtiter plates. After 48 h of incubation at 37 °C in a reduced oxygen atmosphere, 0.5 μCi [3H]-hypoxanthine was added to each well of the plate. Cultures were incubated for a further 24 h before they were harvested onto glass-fiber filters and washed with distilled water. The radioactivity was counted using a BetaplateTM liquid scintillation […]
counter (Wallac, Zurich). […]
concentration and expressed as percentage of the untreated controls. IC50 values were calculated from the sigmoidal inhibition curves using Microsoft Excel. Chloroquine was used as control. […]

Compound | SI (IC50 in L6 cells/IC50 in T. b. rhodesiense) [1] | SI (IC50 in L6 cells/IC50 in P. falciparum) [2]
Nc1nc(N)nc(Nc2ccc([As]3SCC(CO)S3)cc2)n1 (centres unmarked) [Mel., melarsoprol, reference compound] | 6050 | –
CCN(CC)CCCC(C)Nc1ccnc2cc(Cl)ccc12 (centres unmarked) [Chl., chloroquine, reference compound] | – | 45,500
